According to PubChem BioAssay AID485314 (National Center for Advancing Translational Sciences (NCATS), 2010):
Among all 340,000 compounds or so, about 4,500 (1.3%) were called active. The shares of active, inactive and inconclusive entries below differ from those in the screen. Calls come from the whole dose curve; as a rule, active = well fitted inhibition curve with a large enough effect; inconclusive = small, poorly fitted or top-dose-only effect, or another doubt; inactive = no such curve, though single readings can be large or run the other way. Potencies beside an inconclusive call are fits to weak or partial responses and may not hold up.

The compounds below were run against DNA polymerase beta (Homo sapiens) (UniProt P06746) (assay: qHTS Assay for Inhibitors of DNA Polymerase Beta). Details: Pol beta primer extension/strand displacement, fluorescence kinetic; activity change, negative = inhibition: at 114 µM (top of the series).
Procedure, shortened: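 Human Pol beta at 10 nM; strand-displacement substrate 50 nM final. Compound exposure 15 min at room temperature before start, reaction 10 min at room temperature.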
% is set by controls: 0 for no effect and ±100 for the full control effect; potency is the fitted concentration of half-maximal effect.

SMILES	Potency	activity change, negative = inhibition
Cc1cc(C)cc(NC(=O)Cn2nnc(C(=O)NCc3ccc4c(c3)OCO4)c2N)c1	inconclusive: 89.1 µM [inhibitor, single point]	–
O=[N+]([O-])c1ccc(Cl)c2c1C1C=CCC1C(c1ccccn1)N2 (stereo unspecified)	active: 35.5 µM	–
O=C(c1cccc([N+](=O)[O-])c1)N1CCN(Cc2ccc3c(c2)OCO3)CC1	–	inactive: -4.19%
Cc1ccc(C)c(NC(=O)CN2C(=O)CCc3ccccc32)c1	active: 22.4 µM	–
COc1ccc(CC(=O)n2nc(-c3cccnc3)nc2N)cc1	inconclusive: 89.1 µM [inhibitor, single point]	–
O=C(CN1CCC(NC(=O)c2cccc(F)c2)CC1)NCc1cccs1	inconclusive: 89.1 µM [inhibitor, single point]	–
O=[N+]([O-])c1cc(/C=N/n2c(-c3cccnc3)n[nH]c2=S)ccc1Cl	active: 5.62 µM	–
CCn1c2ccccc2c2nnc(SCC(=O)O)nc21	–	inconclusive: -35.2% [inhibitor]
CS(=O)(=O)N1CC(C(=O)O)Oc2ccc(CC(=O)O)cc21 (stereo unspecified)	inconclusive: 100 µM [inhibitor, single point]	–
O=C(O)COCC(=O)Nc1ccc(-n2cnnn2)cc1	–	inconclusive: -41.9% [inhibitor]
Cc1ccc(-c2nnc(OCC3CCCO3)c3ccccc23)cc1 (stereo unspecified)	inconclusive: 31.6 µM [inhibitor, single point]	–
CCOc1ccc2[nH]c(=O)c(CN(Cc3nnnn3Cc3ccco3)C3CCCCC3)cc2c1	active: 20 µM	–
O=C1/C(=C\c2ccco2)SC(=S)N1C1CCCCC1	active: 44.7 µM	–
Cc1cc(C)n(-c2ccc(Cl)c(C(=O)NCc3ccccc3)n2)n1	–	inactive: 33.4%
O=C1C2(CCCC13COC(c1ccc(O)cc1)OC3)COC(c1ccc(O)cc1)OC2 (stereo unspecified)	inconclusive: 63.1 µM [inhibitor, single point]	–
Cc1ccc2c(c1)-c1c(cnc3cc(-c4ccccc4)nn13)CO2	–	inactive: -2.18%
O=C(NCCc1ccccc1)c1nnc(Cc2cccc(F)c2)o1	inconclusive: 39.8 µM [inhibitor, single point]	–
O=C(Nc1ccc2oc(-c3ccccc3F)nc2c1)c1ncn[nH]1	inconclusive: 89.1 µM [inhibitor, single point]	–
CC(C)(C)c1ccc(-c2nc(SCCCOc3ccccc3)n3[nH]c(=O)cc3n2)cc1	inconclusive: 22.4 µM [inhibitor, full curve]	–
CCOC(=O)c1c(C)noc1-c1ccc(Br)o1	inconclusive: 89.1 µM [inhibitor, single point]	–
Cc1ccc(NC(=O)CSc2nnc(-c3ccco3)c(-c3ccco3)n2)cc1	active: 14.1 µM	–
Cc1nnc2ccc(-c3ccc(NC(=O)c4ccc(Cl)nc4)cc3)nn12	inconclusive: 31.6 µM [inhibitor, full curve]	–
COc1ccccc1Oc1c(C)oc2cc(OC(=O)c3ccco3)ccc2c1=O	–	inactive: 0.246%

SMILES	Potency	activity change, negative = inhibition
COc1ccc(Cl)cc1S(=O)(=O)n1cnc2ccccc21	inconclusive: 89.1 µM [inhibitor, single point]	–
CCC(C)(C)NC(=O)C(c1cccs1)N(C(=O)c1ccn[nH]1)c1cccc(OC)c1 (stereo unspecified)	inconclusive: 17.8 µM [inhibitor, full curve]	–
CCCCN(CCCC)CCNC(=O)c1cn(CC)c2ccc(S(=O)(=O)N(C)C3CCCCC3)cc2c1=O	inconclusive: 79.4 µM [inhibitor, single point]	–
CC(C)(C)C1CCC(=NNC(=O)c2ccccc2-n2cccc2)CC1 (stereo unspecified)	inconclusive: 89.1 µM [inhibitor, single point]	–
CCc1ccc(NC(=O)CSC2=Nc3ccccc3C3=NC(CCC(=O)NCc4ccco4)C(=O)N23)cc1 (stereo unspecified)	–	inactive: -8.55%
COc1ccc(C(=O)n2nc(-c3ccco3)nc2NCc2cccs2)cc1OC	–	inactive: 8.6%
O=C(OCc1cn(-c2ccc(Cl)cc2)nn1)c1ccccc1	–	inactive: -7.34%
COC(=O)c1c(NC(=O)CN2CCC3(O)CCCCC3C2c2ccc(F)cc2)sc(C)c1C (stereo unspecified)	inconclusive: 89.1 µM [inhibitor, single point]	–
CCC(=O)NC(c1ccco1)c1cc(Cl)c2cccnc2c1O (stereo unspecified)	inconclusive: 17.8 µM [inhibitor, partial curve]	–
COc1ccc(-c2nc(CSc3nncn4c3cc3sccc34)c(C)o2)cc1OC	inconclusive: 56.2 µM [inhibitor, partial curve]	–
CCOC(=O)C1CCCN(C2CCN(Cc3nc(Cc4ccccc4)no3)CC2)C1 (stereo unspecified)	–	inactive: 7.45%
C1=C(C(c2nnnn2C2CCCCC2)N2CCCCC2)COc2ccccc21 (stereo unspecified)	inconclusive: 89.1 µM [inhibitor, single point]	–
CCOc1ccc(-c2ccc(NS(=O)(=O)c3cc([N+](=O)[O-])c(C)c([N+](=O)[O-])c3)cc2)nn1	–	inconclusive: -35.3% [inhibitor]
CC(C)(C)C(=O)C(Cl)C(=O)Nc1ccccc1 (stereo unspecified)	–	inconclusive: -31.9% [inhibitor]
CC(=O)c1ccc(Sc2ccccc2N)c([N+](=O)[O-])c1	inconclusive: 89.1 µM [inhibitor, single point]	–
COc1ccc(OC)c(/C=N/NC(=O)c2[nH]nc3c2CCc2ccccc2-3)c1	inconclusive: 89.1 µM [inhibitor, single point]	–
O=C(Cc1ccccc1)Nn1c(O)c(/C=C2\C=Nc3ccccc32)sc1=S	inconclusive: 22.4 µM [inhibitor, single point]	–
O=C(COC(=O)C1CCN(S(=O)(=O)c2cccs2)CC1)c1ccc2c(c1)OCCO2	inconclusive: 3.98 µM [inhibitor, full curve]	–
COc1ccc(NC(=O)NNC(=O)c2ccc(-c3ccccc3)cc2)c(OC)c1	–	inactive: 1.28%
Cc1cccc(N2CCN(C(=O)c3cccc(S(=O)(=O)N4CCc5ccccc5C4)c3)CC2C)c1 (stereo unspecified)	–	inactive: 2.53%
O=C(c1ccc(N2CCCC2)c([N+](=O)[O-])c1)N1CCN(CCO)CC1	inconclusive: 39.8 µM [inhibitor, partial curve]	–

Looked up by structure from above (2):
SMILES	Potency	activity change, negative = inhibition
CCc1ccc(NC(=O)CSC2=Nc3ccccc3C3=NC(CCC(=O)NCc4ccco4)C(=O)N23)cc1 (stereo unspecified)	–	inactive: -8.55%
O=C(OCc1cn(-c2ccc(Cl)cc2)nn1)c1ccccc1	–	inactive: -7.34%
